# Taken from: PubChem BioAssay AID1259267 (Sanger Institute, 2017)
# Assay: 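Which kinases and bowel-cancer genes GP5D cells need, with or without anchor drugs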 (primary screen)
# Cells: human GP5D colorectal cancer cells
# Knock-down reagent: siRNA pool against human genes
# Conditions: anchor drugs at low dose: BYL719 1 µM, cetuximab 5 µg/ml, trametinib 10 nM, or DMSO vehicle
# Read-out: 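Viability against non-targeting pool, replicate mean: robust z-score for knock-down alone, fraction with DMSO, synergy with BYL719 1 µM, cetuximab 5 µg/ml, trametinib 10 nM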
# Reading the numbers: robust z-score, knock-down alone and viability with DMSO: higher = more viable cells; synergy score with trametinib and synergy score with BYL719: higher = stronger synthetic lethal synergy with drug
# Active means: 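Active (essential alone) if knock-down without drug gives robust z-score under -3; drug synergy does not count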
# Calls: active = essential alone; inactive = not essential
# This is one part, drawn at random, of 794 reagents. 9 of all reagents (1.1%) were called active. 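Viability capped at 1; calls reflect loss of viability from knock-down alone, not synergy with drugs.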 Not all columns of the deposit are shown. Reagent sequences are not shown. The record does not give: the amount of reagent, the time to read-out.
target gene,"robust z-score, knock-down alone",viability with DMSO (fraction of control),synergy score with trametinib,synergy score with BYL719,Outcome
"GUCY2EP (guanylate cyclase 2E, pseudogene)",0.754,0.987,0.261,-0.0774,inactive
PSTK (phosphoseryl-tRNA kinase),-1.33,0.544,-0.0503,-0.385,inactive
FN1 (fibronectin 1),0.129,0.854,0.154,-0.216,inactive
EPHA4 (EPH receptor A4),-0.227,0.779,-0.24,-0.226,inactive
NME4 (NME/NM23 nucleoside diphosphate kinase 4),-0.683,0.682,-0.348,-0.418,inactive
RIPK1 (receptor interacting serine/threonine kinase 1),-1.01,0.613,-0.0956,-0.242,inactive
CSNK1G1 (casein kinase 1 gamma 1),-2.56,0.285,0.0529,-0.125,inactive
CSF1R (colony stimulating factor 1 receptor),-0.779,0.662,0.196,0.0373,inactive
GAK (cyclin G associated kinase),-0.197,0.785,0.137,-0.185,inactive
